PubChem BioAssay AID1345085 (National Center for Advancing Translational Sciences (NCATS), 2018)
This list was built around the results that the source calls inconclusive (neither active nor inactive); the mix of calls is not that of the screen. Potencies of inconclusive entries are doubtful fits and often do not repeat. Calls of active or inactive are those of the source. The call rests on the fitted dose curve; in most records, active means well fitted cell-killing curve with a large enough effect; inconclusive means small, poorly fitted or top-dose-only effect, or effect the other way; inactive means no such curve, though single readings can be large or run the other way. *1 amine or outer side, *2 acyl side, *3 side chain or, on linkers, in order; H or OH if unused. Where a SMILES comes first, the peptide text is derived from it. Bridges are numbered along the chain shown (N, C = ends). Roman numbers before positions name the chains, in order. [ ]: non-standard residue; d: D form. Actinocin(9to1) = Cc1c2oc3c(C)ccc(C(=O)[*:1])c3nc-2c(C(=O)[*:2])c(N)c1=O; NMeV = CN[C@H](C(=O)O)C(C)C; Sar = CNCC(=O)O
Further: nearly all actives have a fitted effect of over 55% in size.
On the % scale 0 is the no-effect control and ±100 the full control effect; potency means the concentration at half of the fitted maximal effect.

The compounds below were run on Es-2 (assay: Confirmatory qHTS for gynecologic anti-cancer compounds from libraries of approved drugs and bioactive compounds). Settings: gynecologic cancer cell panel viability, ATPlite luminescence, 48 h; series mostly up to 57.6 µM; activity change, negative = viability loss: at the top concentration.
Method in brief: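 ATP-based luminescent viability (ATPlite) after 48 h drug treatment at 37 °C, 5% CO2, across 57.5 uM–0.977 nM in 1:3 steps. Cells seeded at 1,000 per well 16 h beforehand; IC50 values computed, HEK 293T as selectivity control.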
In the case of Nc1ccc(C(=O)Nc2cccc(-c3nc(N4CCOCC4)c4oc5ncccc5c4n3)c2)cn1, the Potency is reported as inconclusive: 9.68 µM [rising, partial curve, poor fit].
OCCNC1CCCc2c1[nH]c1ccc(-c3ccccc3)cc21 (configuration not stated) was tested, and the Potency was active: 19.3 µM.
With CC(=O)Nc1cccc(-n2c(=O)n(C3CC3)c(=O)c3c(Nc4ccc(I)cc4F)n(C)c(=O)c(C)c32)c1 the Potency was inconclusive: 0.243 µM [cytotoxic, full curve].
With Cc1cnc(CNC(=O)c2c(=O)c3ccc(N4CCCN(C)CC4)nc3n3c2sc2ccccc23)cn1 the Potency was inconclusive: 0.0044 µM [cytotoxic, full curve, poor fit].
In the case of Cc1cc(Nc2nc(N[C@@H](C)c3ncc(F)cn3)ncc2Cl)n[nH]1, the “activity change, negative = viability loss” value is reported as inactive: -7.91%.
Cc1ccn(-c2ccc(-c3ncco3)cc2)c(=O)c1-c1ccc2nc(N)ncc2c1 was tested, and the Potency was inconclusive: 17.2 µM [cytotoxic, partial curve, poor fit].
With CN1CCCC(n2nc(Cc3ccc(Cl)cc3)c3ccccc3c2=O)CC1 (configuration not stated) the Potency was inconclusive: 43.2 µM [cytotoxic, single point].
For O=C1N(c2ccccc2)c2ccccc2C1(Cc1ccncc1)Cc1ccncc1, the Potency was inconclusive: 1.37 µM [cytotoxic, full curve].
In the case of CCC(=O)N1CCN(c2ccc(-n3c(=O)ccc4cnc5ccc(-c6cnc7ccccc7c6)cc5c43)cc2C(F)(F)F)CC1, the Potency is reported as inconclusive: 0.125 µM [cytotoxic, full curve].
In the case of CC(=O)OC12COC1CC(O)C1(C)C(=O)C(O)C3=C(C)C(OC(=O)C(O)C(NC(=O)OC(C)(C)C)c4ccccc4)CC(O)(C(OC(=O)c4ccccc4)C21)C3(C)C (configuration not stated), the Potency is reported as inconclusive: 0.0153 µM [cytotoxic, full curve].
In the case of CCn1cc(-c2ccnc3[nH]c(-c4cccc(CN(C)C)c4)cc23)c(-c2ccc(NC(=O)N(C)C)cc2)n1, the Potency is reported as inconclusive: 2.98 µM [cytotoxic, partial curve].
Cc1cc(C(C)Nc2ccccc2C(=O)O)c2nc(N3CCOCC3)cc(=O)n2c1 (configuration not stated) was tested, and the “activity change, negative = viability loss” value was inactive: -20.9%.
With Cc1cc(Nc2nc(N[C@@H](C)c3ccc(F)cc3)c(C#N)cc2F)n[nH]1 the Potency was active: 21.7 µM.
In the case of Cc1nc(N)ncc1-c1nc(N2CCOCC2)c2sc(C(C)(C)O)cc2n1, the “activity change, negative = viability loss” value is reported as inactive: -16.4%.
With C[C@]12CCC(=O)C=C1[C@@H]1C[C@@H]1[C@H]1[C@@H]3[C@@H]4C[C@@H]4[C@@]4(CCC(=O)O4)[C@@]3(C)CC[C@@H]12 the “activity change, negative = viability loss” value was inactive: -1.03%.
With COc1ccc2c(c1)c(CC(=O)O)c(C)n2C(=O)c1ccc(Cl)cc1 the “activity change, negative = viability loss” value was inactive: -5.45%.
In the case of Cc1cc(SCc2sc(-c3ccc(C(F)(F)F)cc3)nc2C)ccc1OCC(=O)O, the “activity change, negative = viability loss” value is reported as inactive: -3.41%.
With CC(C)(C)C(=O)OCOP(=O)(COCCn1cnc2c(N)ncnc21)OCOC(=O)C(C)(C)C the Potency was inconclusive: 4.85 µM [cytotoxic, full curve].
COc1cc2c(cc1-c1c(C)noc1C)ncc1[nH]c(=O)n(C(C)c3ccccn3)c12 (configuration not stated) was tested, and the Potency was active: 2.17 µM.
For COc1cc2nccc(Oc3ccc(NC(=O)Nc4cc(C)on4)c(Cl)c3)c2cc1OC, the Potency was inconclusive: 2.17 µM [rising, full curve, poor fit].
In the case of Cc1ccc(C(=O)Nc2ccc(CN3CCN(C)CC3)c(C(F)(F)F)c2)cc1C#Cc1cnc2[nH]ncc2c1, the Potency is reported as active: 0.306 µM.
With CN(c1nccc(=O)[nH]1)C1CCN(c2nc3ccccc3n2Cc2ccc(F)cc2)CC1 the Potency was inconclusive: 8.63 µM [rising, partial curve, poor fit].
With Nc1ncn([C@@H]2O[C@H](CO)[C@@H](O)[C@H]2O)c(=O)n1 the Potency was active: 12.2 µM.
In the case of COc1c(C)c2c(c(O)c1C/C=C(\C)CCC(=O)O)C(=O)OC2, the Potency is reported as inconclusive: 19.3 µM [cytotoxic, partial curve, poor fit].
O=C1Cc2cc(CCN3CCN(c4nsc5ccccc45)CC3)c(Cl)cc2N1 was tested, and the “activity change, negative = viability loss” value was inactive: 12.2%.
In the case of COC(C(=O)N1Cc2[nH]nc(NC(=O)c3ccc(N4CCN(C)CC4)cc3)c2C1)c1ccccc1 (configuration not stated), the “activity change, negative = viability loss” value is reported as inactive: 30.1%.
For Cc1c2oc3c(C)ccc(C(=O)N[C@@H]4C(=O)N[C@H](C(C)C)C(=O)N5CCC[C@H]5C(=O)N(C)CC(=O)N(C)[C@@H](C(C)C)C(=O)O[C@@H]4C)c3nc-2c(C(=O)N[C@@H]2C(=O)N[C@H](C(C)C)C(=O)N3CCC[C@H]3C(=O)N(C)CC(=O)N(C)[C@@H](C(C)C)C(=O)O[C@@H]2C)c(N)c1=O (I: T[dV]P[Sar][NMeV] / II: T[dV]P[Sar][NMeV]; ester I:1-I:C, II:1-II:C; linker I:N-II:N via Actinocin(9to1)), the Potency was inconclusive: 0.306 µM [cytotoxic, full curve].
